Here are results for nine targets from the supplement of paper PMC12819154, “High-throughput peptide-centric local stability assay extends protein–ligand identification to membrane proteins, tissues and bacteria” (Nature Structural & Molecular Biology, 2025).

Amino acid sequences for entries named in this document (tags omitted). A change or cut given only in a name is not applied to a line headed by its entry.
UniProt P36873, whole entry, looked up: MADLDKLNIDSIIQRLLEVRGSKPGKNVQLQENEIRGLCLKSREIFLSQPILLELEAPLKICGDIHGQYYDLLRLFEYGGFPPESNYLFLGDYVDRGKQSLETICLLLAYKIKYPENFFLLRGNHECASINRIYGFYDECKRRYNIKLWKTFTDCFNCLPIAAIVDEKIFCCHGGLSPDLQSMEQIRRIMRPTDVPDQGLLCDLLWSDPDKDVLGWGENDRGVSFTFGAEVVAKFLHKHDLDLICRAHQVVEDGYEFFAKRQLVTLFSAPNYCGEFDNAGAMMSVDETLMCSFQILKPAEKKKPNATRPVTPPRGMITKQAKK
UniProt P35626: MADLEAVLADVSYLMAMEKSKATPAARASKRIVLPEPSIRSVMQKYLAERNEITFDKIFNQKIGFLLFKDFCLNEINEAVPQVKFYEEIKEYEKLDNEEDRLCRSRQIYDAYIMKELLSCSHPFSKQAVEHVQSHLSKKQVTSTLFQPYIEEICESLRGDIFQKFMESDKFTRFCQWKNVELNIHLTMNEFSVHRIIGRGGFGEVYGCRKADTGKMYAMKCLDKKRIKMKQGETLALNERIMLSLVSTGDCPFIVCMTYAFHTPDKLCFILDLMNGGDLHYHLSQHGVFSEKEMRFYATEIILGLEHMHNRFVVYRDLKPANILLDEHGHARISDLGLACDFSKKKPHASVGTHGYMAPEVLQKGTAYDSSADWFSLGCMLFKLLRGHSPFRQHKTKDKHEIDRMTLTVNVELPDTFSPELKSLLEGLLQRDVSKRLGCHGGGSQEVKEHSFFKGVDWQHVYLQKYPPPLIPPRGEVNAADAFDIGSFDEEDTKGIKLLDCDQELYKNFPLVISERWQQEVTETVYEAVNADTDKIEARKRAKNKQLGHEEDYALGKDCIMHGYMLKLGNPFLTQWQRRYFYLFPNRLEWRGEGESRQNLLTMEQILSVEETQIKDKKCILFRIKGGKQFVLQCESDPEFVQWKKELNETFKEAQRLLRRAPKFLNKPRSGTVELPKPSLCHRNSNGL
UniProt P30041: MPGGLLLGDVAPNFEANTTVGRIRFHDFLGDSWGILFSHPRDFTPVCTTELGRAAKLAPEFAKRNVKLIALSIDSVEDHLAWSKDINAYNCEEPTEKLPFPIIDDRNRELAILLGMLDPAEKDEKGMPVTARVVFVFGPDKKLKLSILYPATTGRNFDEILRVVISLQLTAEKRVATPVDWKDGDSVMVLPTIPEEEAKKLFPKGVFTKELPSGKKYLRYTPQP
UniProt P41247: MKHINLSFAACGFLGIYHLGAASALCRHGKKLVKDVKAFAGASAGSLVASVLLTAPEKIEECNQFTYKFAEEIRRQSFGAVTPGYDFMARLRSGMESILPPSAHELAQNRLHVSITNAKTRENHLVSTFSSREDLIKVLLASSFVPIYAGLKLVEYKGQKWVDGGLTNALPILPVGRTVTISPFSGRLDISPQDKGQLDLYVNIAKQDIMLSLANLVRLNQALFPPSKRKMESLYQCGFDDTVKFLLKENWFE
UniProt P38935: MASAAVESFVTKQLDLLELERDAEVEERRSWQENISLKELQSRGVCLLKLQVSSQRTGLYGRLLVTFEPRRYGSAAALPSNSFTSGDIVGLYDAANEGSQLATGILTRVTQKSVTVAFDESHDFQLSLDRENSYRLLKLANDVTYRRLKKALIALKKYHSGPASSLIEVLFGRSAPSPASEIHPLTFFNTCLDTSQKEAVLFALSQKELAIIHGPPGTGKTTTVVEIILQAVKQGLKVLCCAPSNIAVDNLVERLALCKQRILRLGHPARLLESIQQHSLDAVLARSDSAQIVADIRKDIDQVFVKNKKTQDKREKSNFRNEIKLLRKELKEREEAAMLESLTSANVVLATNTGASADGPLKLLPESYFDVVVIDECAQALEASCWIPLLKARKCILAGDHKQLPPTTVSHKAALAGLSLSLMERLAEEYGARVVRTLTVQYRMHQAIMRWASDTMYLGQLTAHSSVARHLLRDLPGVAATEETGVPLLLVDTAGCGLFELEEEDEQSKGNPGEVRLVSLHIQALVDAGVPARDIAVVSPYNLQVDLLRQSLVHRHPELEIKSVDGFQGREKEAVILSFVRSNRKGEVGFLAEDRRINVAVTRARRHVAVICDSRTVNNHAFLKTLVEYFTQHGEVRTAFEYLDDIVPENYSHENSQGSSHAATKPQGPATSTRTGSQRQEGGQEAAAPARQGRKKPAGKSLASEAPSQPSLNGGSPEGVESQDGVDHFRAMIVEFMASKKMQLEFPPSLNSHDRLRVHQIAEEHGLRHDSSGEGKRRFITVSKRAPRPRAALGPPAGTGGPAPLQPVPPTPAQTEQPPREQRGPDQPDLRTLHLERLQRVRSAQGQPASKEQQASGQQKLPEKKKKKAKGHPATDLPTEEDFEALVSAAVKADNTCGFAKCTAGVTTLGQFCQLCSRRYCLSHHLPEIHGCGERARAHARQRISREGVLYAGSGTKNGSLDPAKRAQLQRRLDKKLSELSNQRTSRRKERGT
UniProt P30281: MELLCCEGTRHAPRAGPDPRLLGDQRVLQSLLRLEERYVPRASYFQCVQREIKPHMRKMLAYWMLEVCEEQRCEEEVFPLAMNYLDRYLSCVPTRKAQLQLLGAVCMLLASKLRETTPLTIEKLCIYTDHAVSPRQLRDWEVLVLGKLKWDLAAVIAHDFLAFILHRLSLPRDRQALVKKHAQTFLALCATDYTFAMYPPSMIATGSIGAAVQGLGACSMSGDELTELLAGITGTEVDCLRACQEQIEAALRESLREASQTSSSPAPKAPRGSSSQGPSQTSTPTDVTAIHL
UniProt P33121: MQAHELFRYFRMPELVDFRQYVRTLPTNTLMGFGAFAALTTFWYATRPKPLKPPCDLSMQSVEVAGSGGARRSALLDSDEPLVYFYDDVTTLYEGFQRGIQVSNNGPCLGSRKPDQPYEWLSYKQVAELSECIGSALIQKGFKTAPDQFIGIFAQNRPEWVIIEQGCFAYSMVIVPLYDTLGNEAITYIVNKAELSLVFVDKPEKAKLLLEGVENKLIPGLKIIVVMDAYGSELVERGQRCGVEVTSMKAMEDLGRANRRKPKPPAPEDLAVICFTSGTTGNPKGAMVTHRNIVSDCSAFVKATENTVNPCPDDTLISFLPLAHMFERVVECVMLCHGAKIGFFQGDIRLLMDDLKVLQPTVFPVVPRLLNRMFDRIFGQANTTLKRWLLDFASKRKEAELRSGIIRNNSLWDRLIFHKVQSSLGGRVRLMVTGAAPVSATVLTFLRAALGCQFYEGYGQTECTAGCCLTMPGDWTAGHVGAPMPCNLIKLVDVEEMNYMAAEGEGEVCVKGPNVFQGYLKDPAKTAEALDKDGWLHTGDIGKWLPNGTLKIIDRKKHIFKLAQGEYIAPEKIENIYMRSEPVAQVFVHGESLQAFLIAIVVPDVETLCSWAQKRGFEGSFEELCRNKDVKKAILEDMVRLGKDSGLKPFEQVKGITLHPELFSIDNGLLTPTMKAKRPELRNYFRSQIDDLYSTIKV
UniProt P32019: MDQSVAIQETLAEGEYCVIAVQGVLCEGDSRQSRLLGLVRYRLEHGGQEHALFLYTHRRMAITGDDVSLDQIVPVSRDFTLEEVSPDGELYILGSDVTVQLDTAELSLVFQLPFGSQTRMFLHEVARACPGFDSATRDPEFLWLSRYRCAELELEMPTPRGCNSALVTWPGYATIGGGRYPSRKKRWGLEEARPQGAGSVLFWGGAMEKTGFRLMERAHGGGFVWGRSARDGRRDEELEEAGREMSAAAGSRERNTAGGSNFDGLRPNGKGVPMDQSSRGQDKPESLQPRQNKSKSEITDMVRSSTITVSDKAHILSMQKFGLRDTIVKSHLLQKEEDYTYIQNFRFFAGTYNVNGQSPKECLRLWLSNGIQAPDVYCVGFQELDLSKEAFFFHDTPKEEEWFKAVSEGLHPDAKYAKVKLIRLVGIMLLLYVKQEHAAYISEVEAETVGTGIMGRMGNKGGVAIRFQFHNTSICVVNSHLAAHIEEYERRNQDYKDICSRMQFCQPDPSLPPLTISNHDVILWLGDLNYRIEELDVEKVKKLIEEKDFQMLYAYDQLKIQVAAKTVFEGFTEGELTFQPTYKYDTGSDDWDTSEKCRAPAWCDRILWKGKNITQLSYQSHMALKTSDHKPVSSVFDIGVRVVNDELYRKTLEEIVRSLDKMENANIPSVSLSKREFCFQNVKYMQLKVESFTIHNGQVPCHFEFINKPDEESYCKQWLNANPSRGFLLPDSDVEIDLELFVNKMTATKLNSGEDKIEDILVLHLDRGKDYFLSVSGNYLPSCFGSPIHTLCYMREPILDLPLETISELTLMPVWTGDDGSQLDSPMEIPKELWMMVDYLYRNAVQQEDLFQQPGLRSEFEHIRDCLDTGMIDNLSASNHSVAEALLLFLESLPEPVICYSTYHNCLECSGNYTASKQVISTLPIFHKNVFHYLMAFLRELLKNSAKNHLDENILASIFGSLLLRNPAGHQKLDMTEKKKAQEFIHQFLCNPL
UniProt P32456: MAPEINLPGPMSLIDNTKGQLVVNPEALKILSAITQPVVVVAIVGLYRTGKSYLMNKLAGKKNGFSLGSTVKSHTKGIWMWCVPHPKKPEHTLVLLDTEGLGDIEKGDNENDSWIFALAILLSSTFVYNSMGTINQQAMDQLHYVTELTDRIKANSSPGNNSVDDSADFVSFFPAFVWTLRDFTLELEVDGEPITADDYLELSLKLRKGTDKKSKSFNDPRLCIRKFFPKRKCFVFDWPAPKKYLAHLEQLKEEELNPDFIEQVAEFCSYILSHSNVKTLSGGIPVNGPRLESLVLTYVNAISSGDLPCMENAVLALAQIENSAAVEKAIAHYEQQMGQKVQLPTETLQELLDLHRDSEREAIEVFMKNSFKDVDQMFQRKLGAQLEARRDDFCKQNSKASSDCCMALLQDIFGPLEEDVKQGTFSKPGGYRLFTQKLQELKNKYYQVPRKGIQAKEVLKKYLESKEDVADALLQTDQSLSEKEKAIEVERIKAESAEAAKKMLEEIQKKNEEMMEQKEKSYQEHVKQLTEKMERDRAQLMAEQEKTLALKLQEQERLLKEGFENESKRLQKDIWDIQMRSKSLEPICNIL

This is one part of the list. Small differences around the control level are noise.

Compound in the assay: Cc1nc(Nc2ncc(C(=O)Nc3c(C)cccc3Cl)s2)cc(N2CCN(CCO)CC2)n1 [dasatinib]
Kind of assay: log2 fold change of tryptic peptide abundance, ligand vs vehicle (limited proteolysis) (log2 ratio); higher = more trypsin-susceptible (destabilized). The settings on record: ligand concentration: 5 uM; sample: K562 cleared lysate.
As for “PPP1CC (peptide sequence: KPNATRPVTPPR, peptide start residue: 303) (UniProt P36873)”, the log2 fold change was 0.196.
Next, “UniProt P35626 (peptide sequence: QIYDAYIMK, peptide start residue: 107)”: 0.356.
Turning to “PRDX6 (peptide sequence: DINAYNCEEPTEKLPFPIIDDR, peptide start residue: 85) (UniProt P30041)”, the log2 fold change came out at 0.331.
Next, “PNPLA4 (peptide sequence: KMESLYQCGFDDTVK, peptide start residue: 230) (UniProt P41247)”: 0.477; “IGHMBP2 (peptide sequence: TLVEYFTQHGEVR, peptide start residue: 625) (UniProt P38935)”: 0.117.
As for “CCND3 (peptide sequence: LCIYTDHAVSPR, peptide start residue: 124) (UniProt P30281)”, the log2 fold change was -0.167.
As for “ACSL1 (peptide sequence: GPNVFQGYLKDPAK, peptide start residue: 512) (UniProt P33121)”, the figure is -0.45; as for “INPP5B (peptide sequence: NITQLSYQSHMALK, peptide start residue: 612) (UniProt P32019)”, -0.366; as for “GBP2 (peptide sequence: DIWDIQMR, peptide start residue: 573) (UniProt P32456)”, 0.0368.
